Article PMC13002332
No constants are given. Whether binding was seen depends on the method and setting. In cells and extracts the contact can be indirect. Some entries that bind do so weakly or less than the wild type. Where a sequence is shown, tags or fusion partners need not be part of it.

Protein sequences, listed by entry. Tags and fused reporters are not part of them.
UniProt Q9D4K7: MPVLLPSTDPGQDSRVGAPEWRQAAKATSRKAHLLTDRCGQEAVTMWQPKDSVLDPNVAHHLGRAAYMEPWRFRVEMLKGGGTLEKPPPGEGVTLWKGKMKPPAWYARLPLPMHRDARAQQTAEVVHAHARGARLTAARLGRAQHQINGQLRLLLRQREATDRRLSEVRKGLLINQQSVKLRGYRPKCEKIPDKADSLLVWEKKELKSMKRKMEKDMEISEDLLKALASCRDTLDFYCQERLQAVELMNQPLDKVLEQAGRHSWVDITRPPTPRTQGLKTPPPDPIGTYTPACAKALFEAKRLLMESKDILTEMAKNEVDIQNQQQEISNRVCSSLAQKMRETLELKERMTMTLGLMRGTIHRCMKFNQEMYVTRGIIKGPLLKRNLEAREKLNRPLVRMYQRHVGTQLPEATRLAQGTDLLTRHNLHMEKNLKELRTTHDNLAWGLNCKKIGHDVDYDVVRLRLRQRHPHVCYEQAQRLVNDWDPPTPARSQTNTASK

Molecular target: T1, 3×FLAG-CFAP77 expressed in HEK293T cells (mouse)
T1 sequence: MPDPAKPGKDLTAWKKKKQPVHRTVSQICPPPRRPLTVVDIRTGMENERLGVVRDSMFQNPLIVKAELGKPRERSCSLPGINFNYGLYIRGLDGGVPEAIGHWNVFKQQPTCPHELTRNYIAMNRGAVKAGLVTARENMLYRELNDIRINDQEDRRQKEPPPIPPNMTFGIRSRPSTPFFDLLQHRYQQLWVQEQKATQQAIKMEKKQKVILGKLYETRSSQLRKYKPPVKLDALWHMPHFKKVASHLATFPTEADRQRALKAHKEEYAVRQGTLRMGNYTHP
Assay: co-IP; HEK293T cells transfected with 3×FLAG-Cfap77 and HA-Tektl1; immunoprecipitation on Dynabeads, immunoblot

Which binding does the source give for “HA-TEKTL1 expressed in HEK293T cells (from UniProt Q9D4K7 1-499)” here?
The binding was “binds”.
